Survivor count and T/C data for 21 molecules are collected here from PubChem BioAssay AID328 (DTP/NCI, 2004).

The assay has as its system BDF1 mice, P388 leukemia ip, median survival T/C. Description: NCI In Vivo Anticancer Drug Screen. Data for tumor model P388 Leukemia (intraperitoneal) in B6D2F1 (BDF1) mice. The settings on record: T/C endpoint: median survival time, higher T/C = longer survival. The procedure, abridged:
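Read-out is survival of treated animals expressed relative to the vehicle group, as a T/C ratio.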

Setting [1] is: dose: 400.0 mg/kg/injection, schedule: Q01DX009 (ip), vehicle: saline with Tween-80.
Setting [2] is: dose: 100.0 mg/kg/injection, schedule: Q01DX009 (ip), vehicle: saline.
Setting [3] is: dose: 200.0 mg/kg/injection, schedule: Q01DX009 (ip), vehicle: saline.

The list shows only some results of the screen, not a fair sample: it is rich in T/C values a quarter to a half above the control, in often repeated tests (any T/C) and in doses without a T/C. Further doses and runs are listed elsewhere. T/C: endpoint of the treated group in % of that of the vehicle group. Some entries give survivors of the animals treated and no T/C: the source holds a T/C of zero for them, seemingly a mark for toxic or unscored doses. Some doses without a T/C left all or most animals alive at the check, yet need not have been tolerated: the source hardly ever lists a survival T/C far under the control, and the zero likely stands for such cases as well. Counts of survivors are from the toxicity check (mostly the fifth day) where no day follows; animals may have died later. Schedule codes are those of the source, read here as Q, the interval in days (D) or hours (H), X, the number of doses. For survival time, this PubChem deposit counts one and a half times the control or more as active, and values a quarter to a half above the control carry no call in these data; other NCI protocols may use other cut-offs. Some entries were tested several times; the values are given in rising order. Some T/C values carry the count of animals alive at the toxicity check (mostly the fifth day); where none is given, no animal had died by that day.

Take `CCCCCCCCCCCCSCCCCSCCCCCCCCCCCC`: the survivor count (dose: 400.0 mg/kg/injection, schedule: Q01DX001 (ip), vehicle: saline sonified) is on record as 6 of 6.

Regarding `N=Nc1c2ccccc2c2nc3c(N)[nH]nc(N)c3nc12`, the survivor count (dose: 200.0 mg/kg/injection, schedule: Q04DX003 (ip), vehicle: saline with Tween-80) is 6 of 6.

On to `C1=C(c2ccccc2)OC(c2ccccc2)C1c1ccccc1` (configuration not stated), for which the survivor count (dose: 100.0 mg/kg/injection, schedule: Q01DX005 (ip), vehicle: saline with Tween-80) is given as 5 of 5.

For the molecule `O=[N+]([O-])c1ccc(N2CCOCC2)c2c1no[n+]2[O-]`, the T/C (dose: 16.0 mg/kg/injection, schedule: Q04DX003 (ip), vehicle: saline with Tween-80) is 126 % of control [6 of 7 alive].

As to `N#C/C(=C\c1ccncc1)c1ccccc1`, the survivor count by setting is: (dose: 25.0 mg/kg/injection, schedule: Q01DX009 (ip), vehicle: saline with Tween-80) 6 of 6; under setting [1], 3 of 6.

On to `O=C1c2cccnc2C(=O)N1Cc1ccccc1`, for which the survivor count was 6 of 6 (dose: 75.0 mg/kg/injection, schedule: Q01DX009 (ip), vehicle: saline with Tween-80); 6 of 6 (dose: 150.0 mg/kg/injection, schedule: Q01DX009 (ip), vehicle: saline with Tween-80); 6 of 6 (dose: 300.0 mg/kg/injection, schedule: Q01DX009 (ip), vehicle: saline with Tween-80).

For `CC1(C)CO[Se](=O)OC1`, the survivor count is 0 of 6 (dose: 50.0 mg/kg/injection, schedule: Q01DX009 (ip), vehicle: saline); 0 of 6 under setting [2]; 0 of 6 under setting [3].

With `COc1cc(NCCCCC(C)N)c2nccc(C)c2c1` (configuration not stated), the survivor count is, setting by setting: under setting [2], 4 of 6; under setting [3], 0 of 6.

Turning to `CCn1cnc2c(SC)ncnc21`, the survivor count (dose: 100.0 mg/kg/injection, schedule: Q04DX003 (ip), vehicle: saline) was 6 of 6; the survivor count (dose: 110.0 mg/kg/injection, schedule: Q01DX009 (ip), vehicle: Klucel (hydroxypropylcellulose) (HPC)) is recorded as 4 of 6; the survivor count (dose: 150.0 mg/kg/injection, schedule: Q04DX003 (ip), vehicle: Klucel (hydroxypropylcellulose) (HPC)) is on record as 5 of 6; the survivor count (dose: 170.0 mg/kg/injection, schedule: Q01DX009 (ip), vehicle: Klucel (hydroxypropylcellulose) (HPC)) is given as 2 of 6; the survivor count (dose: 255.0 mg/kg/injection, schedule: Q01DX009 (ip), vehicle: Klucel (hydroxypropylcellulose) (HPC)) was 0 of 6; the survivor count (dose: 300.0 mg/kg/injection, schedule: Q04DX003 (ip), vehicle: Klucel (hydroxypropylcellulose) (HPC)) is recorded as 0 of 6.

`COc1cc2c3cc1Oc1c(OC)c(OC)cc4c1C(Cc1ccc(O)c(c1)-c1cc(ccc1OC)CC3N(C)CC2)N(C)CC4` (configuration not stated): the survivor count is given as 6 of 6 (dose: 0.78 mg/kg/injection, schedule: Q01DX009 (ip), vehicle: Klucel (hydroxypropylcellulose) (HPC)); 6 of 6 (dose: 12.5 mg/kg/injection, schedule: Q01DX009 (ip), vehicle: carboxymethylcellulose (CMC)); 6 of 6 (dose: 25.0 mg/kg/injection, schedule: Q01DX009 (ip), vehicle: carboxymethylcellulose (CMC)). For the same molecule, the T/C by setting is: (dose: 1.56 mg/kg/injection, schedule: Q01DX009 (ip), vehicle: Klucel (hydroxypropylcellulose) (HPC)) 136 % of control; (dose: 3.13 mg/kg/injection, schedule: Q01DX009 (ip), vehicle: Klucel (hydroxypropylcellulose) (HPC)) 134 % of control; (dose: 6.25 mg/kg/injection, schedule: Q01DX009 (ip), vehicle: Klucel (hydroxypropylcellulose) (HPC)) 127 % of control.

Take `Cc1cccc2cc3cccc(C)[n+]3cc12`: the survivor count is listed as 0 of 6 (dose: 10.0 mg/kg/injection, schedule: Q01DX010 (ip), vehicle: saline); 0 of 6 (dose: 20.0 mg/kg/injection, schedule: Q01DX010 (ip), vehicle: saline); 0 of 6 (dose: 40.0 mg/kg/injection, schedule: Q01DX010 (ip), vehicle: saline).

`CC1(C)N=C(N)N=C(N)N1c1ccc(OCc2ccc(C(=O)Nc3cccc(S(=O)(=O)F)c3)cc2)c(Cl)c1`: the T/C (dose: 6.25 mg/kg/injection, schedule: Q04DX003 (ip), vehicle: Klucel (hydroxypropylcellulose) (HPC)) was 138 % of control.

For the molecule `Cc1ccc(N=C=O)cc1[N+](=O)[O-]`, the survivor count (dose: 12.5 mg/kg/injection, schedule: Q01DX009 (ip), vehicle: gum acacia) is listed as 6 of 6.

With `CC(=O)[C@H]1CC[C@H]2[C@@H]3CCC4=CC(=O)[C@H](C)C[C@]4(C)[C@H]3C(=O)C[C@]12C`, under setting [1], the survivor count is 6 of 6.

Regarding `CCCCCSc1nc(N)nc2nc[nH]c12`, the survivor count (dose: 400.0 mg/kg/injection, schedule: Q01DX009 (ip), vehicle: Klucel (hydroxypropylcellulose) (HPC)) is 1 of 6.

For `CC1CN1P(=S)(N1CCCC1)N1CC1C` (configuration not stated), the survivor count (dose: 200.0 mg/kg/injection, schedule: Q01DX009 (ip), vehicle: saline with Tween-80) is 6 of 6.

Consider `CN(Cc1cnc2nc(N)nc(N)c2n1)c1c(Cl)cc(C(=O)NC(CCC(=O)O)C(=O)O)cc1Br` (configuration not stated), for which the T/C was 131 % of control (dose: 0.7 mg/kg/injection, schedule: Q04DX003 (ip), vehicle: saline); 145 % of control (dose: 1.8 mg/kg/injection, schedule: Q04DX003 (ip), vehicle: saline); 140 % of control (dose: 2.7 mg/kg/injection, schedule: Q04DX003 (ip), vehicle: saline); 131 % of control (dose: 4.2 mg/kg/injection, schedule: Q04DX003 (ip), vehicle: saline); 127 % of control (dose: 9.6 mg/kg/injection, schedule: Q04DX003 (ip), vehicle: saline); 136 % of control (dose: 14.0 mg/kg/injection, schedule: Q04DX003 (ip), vehicle: saline). The T/C is, setting by setting: (dose: 22.0 mg/kg/injection, schedule: Q04DX003 (ip), vehicle: saline) 136 % of control; (dose: 35.0 mg/kg/injection, schedule: Q04DX003 (ip), vehicle: saline) 145 % of control [5 of 6 alive]. In addition, under setting [1], the survivor count is recorded as 6 of 6.

Turning to `CCC(c1ccc(OC)cc1)C(NCC(=O)N/N=C/c1ccccc1[N+](=O)[O-])c1ccc(OC)cc1` (configuration not stated), the survivor count is recorded as 6 of 6 (dose: 25.0 mg/kg/injection, schedule: Q01DX001 (ip), vehicle: saline with Tween-80) and 6 of 6 (dose: 50.0 mg/kg/injection, schedule: Q01DX001 (ip), vehicle: saline with Tween-80).

`COc1cccc2c1C(=O)c1c(O)c3c(c(O)c1C2=O)CC(O)(/C(C)=N/Nc1ccc(Cl)cc1)CC3OC1CC(N)C(O)C(C)O1` (configuration not stated): the T/C is, setting by setting: (dose: 1.47 mg/kg/injection, schedule: Q04DX003 (ip), vehicle: water) 133 % of control; (dose: 2.45 mg/kg/injection, schedule: Q04DX003 (ip), vehicle: water) 148 % of control [7 of 8 alive].

Consider `C#CC[N+]12CN3CN(CN(C3)C1)C2`, for which the T/C under setting [2] was 137 and 148 % of control; the T/C under setting [3] is 147 % of control. For the same molecule, the survivor count is, setting by setting: under setting [3], 3 of 6; (dose: 400.0 mg/kg/injection, schedule: Q01DX009 (ip), vehicle: saline) 0 of 6.

Consider `CSc1cccc(NC(=O)N2CCN(c3ccccc3)CC2)c1`, for which the survivor count (dose: 50.0 mg/kg/injection, schedule: Q01DX009 (ip), vehicle: DMSO) was 0 of 6.
